According to the supplement of paper PMC10849652:
The list shows a part of the results.

By UniProt entry, the sequences of proteins in these tests, tags left out. Where a name states a change or a piece, a line headed by the entry shows the natural chain unless it says otherwise.
UniProt Q9UJX2, whole entry, looked up: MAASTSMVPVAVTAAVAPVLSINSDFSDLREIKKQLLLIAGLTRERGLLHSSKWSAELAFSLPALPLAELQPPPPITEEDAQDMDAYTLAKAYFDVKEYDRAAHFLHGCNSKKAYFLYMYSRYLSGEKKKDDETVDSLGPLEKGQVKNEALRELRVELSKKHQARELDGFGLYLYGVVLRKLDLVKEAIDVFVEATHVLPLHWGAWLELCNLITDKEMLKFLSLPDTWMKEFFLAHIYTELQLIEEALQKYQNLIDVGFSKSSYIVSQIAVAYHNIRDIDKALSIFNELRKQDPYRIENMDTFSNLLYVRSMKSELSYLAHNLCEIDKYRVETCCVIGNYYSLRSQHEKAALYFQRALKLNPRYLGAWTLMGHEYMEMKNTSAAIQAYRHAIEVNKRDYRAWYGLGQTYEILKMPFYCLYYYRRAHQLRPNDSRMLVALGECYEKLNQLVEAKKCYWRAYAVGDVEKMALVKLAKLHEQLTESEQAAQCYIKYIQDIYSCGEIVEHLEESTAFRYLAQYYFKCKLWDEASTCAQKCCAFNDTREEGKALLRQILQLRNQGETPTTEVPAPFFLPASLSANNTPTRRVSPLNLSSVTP
UniProt O95067, whole entry, looked up: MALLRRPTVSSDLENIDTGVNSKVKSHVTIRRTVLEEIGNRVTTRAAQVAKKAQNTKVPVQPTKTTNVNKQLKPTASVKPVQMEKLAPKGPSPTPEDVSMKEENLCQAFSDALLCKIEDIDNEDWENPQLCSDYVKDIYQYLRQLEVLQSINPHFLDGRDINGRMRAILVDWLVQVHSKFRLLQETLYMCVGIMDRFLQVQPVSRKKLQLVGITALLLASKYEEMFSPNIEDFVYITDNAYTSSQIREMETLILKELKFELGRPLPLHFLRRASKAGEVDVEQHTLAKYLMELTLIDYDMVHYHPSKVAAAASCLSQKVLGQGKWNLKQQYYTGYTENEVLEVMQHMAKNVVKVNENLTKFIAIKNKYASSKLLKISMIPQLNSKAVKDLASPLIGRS
UniProt Q13185: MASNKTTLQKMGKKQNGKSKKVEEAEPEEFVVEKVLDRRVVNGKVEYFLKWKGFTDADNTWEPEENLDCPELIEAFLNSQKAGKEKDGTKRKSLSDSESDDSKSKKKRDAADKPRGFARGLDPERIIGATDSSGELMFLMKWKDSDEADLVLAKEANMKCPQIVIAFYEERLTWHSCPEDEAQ
UniProt Q3V6T2: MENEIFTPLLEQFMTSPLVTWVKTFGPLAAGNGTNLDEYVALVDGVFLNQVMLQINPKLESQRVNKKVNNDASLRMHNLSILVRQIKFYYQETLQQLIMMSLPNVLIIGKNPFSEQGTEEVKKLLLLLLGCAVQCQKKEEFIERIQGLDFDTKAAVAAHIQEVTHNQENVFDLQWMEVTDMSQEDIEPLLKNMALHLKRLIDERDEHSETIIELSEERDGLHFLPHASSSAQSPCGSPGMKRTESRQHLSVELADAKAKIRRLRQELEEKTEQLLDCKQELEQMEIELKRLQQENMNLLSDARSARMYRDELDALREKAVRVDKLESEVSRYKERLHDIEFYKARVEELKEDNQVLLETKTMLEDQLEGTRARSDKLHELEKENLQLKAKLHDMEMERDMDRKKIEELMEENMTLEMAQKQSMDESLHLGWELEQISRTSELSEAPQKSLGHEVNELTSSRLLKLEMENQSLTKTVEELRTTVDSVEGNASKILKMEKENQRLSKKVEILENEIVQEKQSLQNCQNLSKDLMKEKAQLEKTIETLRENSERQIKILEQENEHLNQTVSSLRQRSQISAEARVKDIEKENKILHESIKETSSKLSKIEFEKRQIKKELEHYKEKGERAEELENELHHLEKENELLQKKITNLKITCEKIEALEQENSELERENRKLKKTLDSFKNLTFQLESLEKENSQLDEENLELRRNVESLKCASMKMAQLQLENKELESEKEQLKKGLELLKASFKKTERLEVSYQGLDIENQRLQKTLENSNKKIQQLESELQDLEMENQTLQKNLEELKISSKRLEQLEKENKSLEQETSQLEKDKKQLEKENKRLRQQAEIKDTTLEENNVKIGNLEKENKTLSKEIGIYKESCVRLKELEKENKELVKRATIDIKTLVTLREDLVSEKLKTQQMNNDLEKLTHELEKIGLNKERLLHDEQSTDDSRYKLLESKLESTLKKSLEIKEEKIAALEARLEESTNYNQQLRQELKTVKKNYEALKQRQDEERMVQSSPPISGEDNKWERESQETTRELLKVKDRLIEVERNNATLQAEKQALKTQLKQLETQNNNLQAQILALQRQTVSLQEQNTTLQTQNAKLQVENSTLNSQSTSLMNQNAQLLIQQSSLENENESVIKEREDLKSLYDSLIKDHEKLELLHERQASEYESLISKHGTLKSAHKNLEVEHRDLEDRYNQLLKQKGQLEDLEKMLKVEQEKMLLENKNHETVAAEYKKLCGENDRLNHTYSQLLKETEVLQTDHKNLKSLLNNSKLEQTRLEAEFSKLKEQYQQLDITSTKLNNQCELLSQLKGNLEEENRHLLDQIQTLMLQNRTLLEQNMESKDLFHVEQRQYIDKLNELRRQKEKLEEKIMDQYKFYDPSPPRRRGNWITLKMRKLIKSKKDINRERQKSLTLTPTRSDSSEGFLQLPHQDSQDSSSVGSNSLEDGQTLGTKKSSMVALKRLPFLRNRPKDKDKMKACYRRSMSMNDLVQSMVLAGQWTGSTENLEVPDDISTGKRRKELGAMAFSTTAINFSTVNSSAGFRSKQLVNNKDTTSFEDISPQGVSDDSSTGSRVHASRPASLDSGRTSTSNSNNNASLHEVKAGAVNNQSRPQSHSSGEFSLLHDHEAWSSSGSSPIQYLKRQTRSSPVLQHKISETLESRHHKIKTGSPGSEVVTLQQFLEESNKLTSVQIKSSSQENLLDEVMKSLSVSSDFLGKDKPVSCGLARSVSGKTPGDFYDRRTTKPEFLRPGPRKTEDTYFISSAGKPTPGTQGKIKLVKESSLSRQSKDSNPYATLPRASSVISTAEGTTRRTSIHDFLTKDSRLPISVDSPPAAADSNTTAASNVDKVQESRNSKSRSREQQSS
UniProt Q8IVM0: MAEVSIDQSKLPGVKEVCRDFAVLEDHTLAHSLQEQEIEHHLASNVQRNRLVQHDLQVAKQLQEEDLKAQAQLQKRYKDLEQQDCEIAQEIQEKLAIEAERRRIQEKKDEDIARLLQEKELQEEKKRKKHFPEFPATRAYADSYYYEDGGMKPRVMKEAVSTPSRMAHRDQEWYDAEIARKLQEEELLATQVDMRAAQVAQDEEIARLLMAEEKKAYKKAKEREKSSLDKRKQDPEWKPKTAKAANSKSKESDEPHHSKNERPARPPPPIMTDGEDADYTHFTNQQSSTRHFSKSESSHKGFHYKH
UniProt O75081: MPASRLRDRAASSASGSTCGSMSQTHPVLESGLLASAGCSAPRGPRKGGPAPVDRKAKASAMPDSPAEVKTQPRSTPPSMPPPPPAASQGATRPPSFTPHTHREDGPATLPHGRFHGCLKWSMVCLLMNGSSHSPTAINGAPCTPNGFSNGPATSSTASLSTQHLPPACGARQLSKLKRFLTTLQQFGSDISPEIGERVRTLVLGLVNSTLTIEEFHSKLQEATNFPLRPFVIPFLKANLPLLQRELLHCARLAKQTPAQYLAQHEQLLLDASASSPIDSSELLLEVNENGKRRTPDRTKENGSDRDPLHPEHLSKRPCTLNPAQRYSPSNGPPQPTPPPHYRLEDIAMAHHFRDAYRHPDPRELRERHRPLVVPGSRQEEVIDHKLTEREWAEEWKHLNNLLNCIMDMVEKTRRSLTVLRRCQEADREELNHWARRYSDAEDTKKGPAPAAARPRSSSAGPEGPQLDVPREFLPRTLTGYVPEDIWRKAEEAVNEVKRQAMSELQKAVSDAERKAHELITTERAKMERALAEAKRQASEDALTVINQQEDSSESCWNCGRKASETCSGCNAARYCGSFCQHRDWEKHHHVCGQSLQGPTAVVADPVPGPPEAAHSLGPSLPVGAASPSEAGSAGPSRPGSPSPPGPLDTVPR
UniProt Q8WUD4: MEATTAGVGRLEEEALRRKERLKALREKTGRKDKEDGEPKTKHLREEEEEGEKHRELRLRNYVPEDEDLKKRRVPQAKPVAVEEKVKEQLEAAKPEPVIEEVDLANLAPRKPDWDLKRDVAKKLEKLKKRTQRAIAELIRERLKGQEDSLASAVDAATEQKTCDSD
UniProt Q16204: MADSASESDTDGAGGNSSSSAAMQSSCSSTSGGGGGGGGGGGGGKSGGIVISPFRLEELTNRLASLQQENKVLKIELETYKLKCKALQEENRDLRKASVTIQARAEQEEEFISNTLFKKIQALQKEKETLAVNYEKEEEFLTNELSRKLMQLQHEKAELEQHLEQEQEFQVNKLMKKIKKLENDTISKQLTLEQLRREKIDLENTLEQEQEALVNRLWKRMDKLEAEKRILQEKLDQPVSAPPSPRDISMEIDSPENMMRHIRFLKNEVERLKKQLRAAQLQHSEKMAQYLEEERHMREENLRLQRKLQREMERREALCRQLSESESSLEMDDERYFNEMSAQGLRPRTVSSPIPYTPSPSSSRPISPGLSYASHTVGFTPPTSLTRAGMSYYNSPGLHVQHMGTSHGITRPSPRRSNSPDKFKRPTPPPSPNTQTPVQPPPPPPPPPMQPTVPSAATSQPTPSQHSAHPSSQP
UniProt Q13951, whole entry, looked up: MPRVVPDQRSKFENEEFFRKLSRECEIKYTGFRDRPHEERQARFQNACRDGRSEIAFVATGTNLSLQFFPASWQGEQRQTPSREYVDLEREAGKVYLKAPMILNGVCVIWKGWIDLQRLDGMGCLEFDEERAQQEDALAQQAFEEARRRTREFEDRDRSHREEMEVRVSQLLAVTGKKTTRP
UniProt P55212: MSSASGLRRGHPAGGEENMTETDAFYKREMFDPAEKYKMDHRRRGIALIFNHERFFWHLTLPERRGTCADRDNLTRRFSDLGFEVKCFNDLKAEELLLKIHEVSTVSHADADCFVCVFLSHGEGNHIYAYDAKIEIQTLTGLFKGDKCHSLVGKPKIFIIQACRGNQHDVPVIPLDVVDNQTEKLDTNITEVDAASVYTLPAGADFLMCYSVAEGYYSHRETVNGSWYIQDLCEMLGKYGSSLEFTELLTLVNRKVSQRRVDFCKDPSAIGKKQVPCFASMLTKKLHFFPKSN
UniProt Q567U6, whole entry, looked up: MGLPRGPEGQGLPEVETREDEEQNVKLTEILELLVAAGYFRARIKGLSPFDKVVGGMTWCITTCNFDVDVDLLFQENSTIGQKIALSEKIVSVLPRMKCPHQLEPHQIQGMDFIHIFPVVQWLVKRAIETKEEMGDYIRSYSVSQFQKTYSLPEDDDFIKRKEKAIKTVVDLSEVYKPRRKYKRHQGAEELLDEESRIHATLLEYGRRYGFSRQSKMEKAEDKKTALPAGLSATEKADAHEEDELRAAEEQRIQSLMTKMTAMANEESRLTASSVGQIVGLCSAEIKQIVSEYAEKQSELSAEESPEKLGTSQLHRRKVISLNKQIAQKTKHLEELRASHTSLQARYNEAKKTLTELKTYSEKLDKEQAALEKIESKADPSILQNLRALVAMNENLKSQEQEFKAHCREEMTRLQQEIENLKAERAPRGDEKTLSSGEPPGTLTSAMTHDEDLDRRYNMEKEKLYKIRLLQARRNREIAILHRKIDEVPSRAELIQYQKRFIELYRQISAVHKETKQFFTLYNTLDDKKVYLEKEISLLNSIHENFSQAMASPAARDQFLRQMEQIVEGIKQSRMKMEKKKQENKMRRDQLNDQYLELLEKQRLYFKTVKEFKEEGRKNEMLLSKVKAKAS
UniProt Q9GZT6: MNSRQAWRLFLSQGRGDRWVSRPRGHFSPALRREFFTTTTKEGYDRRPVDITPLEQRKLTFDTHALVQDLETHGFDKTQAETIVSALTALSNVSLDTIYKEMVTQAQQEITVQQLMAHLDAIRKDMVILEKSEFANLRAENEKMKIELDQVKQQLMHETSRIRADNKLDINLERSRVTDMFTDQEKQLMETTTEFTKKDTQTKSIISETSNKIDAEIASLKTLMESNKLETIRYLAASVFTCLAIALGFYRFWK
UniProt P48643, whole entry, looked up: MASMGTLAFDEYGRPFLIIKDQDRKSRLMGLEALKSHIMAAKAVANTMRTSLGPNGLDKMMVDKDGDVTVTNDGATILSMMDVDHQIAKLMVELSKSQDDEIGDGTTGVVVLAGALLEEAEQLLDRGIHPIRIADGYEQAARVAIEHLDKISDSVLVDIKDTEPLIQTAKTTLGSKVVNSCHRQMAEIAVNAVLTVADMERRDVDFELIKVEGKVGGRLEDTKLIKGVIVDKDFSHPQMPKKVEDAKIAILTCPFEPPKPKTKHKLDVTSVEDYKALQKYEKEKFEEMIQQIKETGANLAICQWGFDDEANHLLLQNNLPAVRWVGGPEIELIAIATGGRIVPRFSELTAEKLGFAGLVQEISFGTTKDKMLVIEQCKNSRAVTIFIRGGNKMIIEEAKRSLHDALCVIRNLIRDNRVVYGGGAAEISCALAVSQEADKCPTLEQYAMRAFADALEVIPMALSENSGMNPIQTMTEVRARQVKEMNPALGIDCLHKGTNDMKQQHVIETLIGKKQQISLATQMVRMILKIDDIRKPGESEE

Legend:
Test in all cases: log2 fold change, soluble protein after heating vs DMSO (PISA); higher = thermal stabilisation; K562 cells, 10 uM, 30 min; active = over 0.2 and 3.5 SD of the protein, either way, in both replicates (recomputed)
[1] = compound: COC1=CC=C(C=C1)CN2C=CC3=C2C=C(C=C3)C(=O)NO
Method in brief: (§1)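 Values are thermal stability changes relative to control samples and are taken from duplicates. They are stated as log2 fold changes. Before quantification by TMTpro 16plex LC-MS/MS with equalised channel sums, K562 cells at 2×10^6 cells/mL were treated with 10 μM compound for 30 min, heated in aliquots for 3 min across 48°C-58°C, pooled, extracted in PBS with 0.5% NP-40 at 4°C, and centrifuged at 21,000xg for 90 min to give the soluble supernatant.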

filanesib = compound: CON(C)C(=O)N1N=C(c2cc(F)ccc2F)S[C@@]1(CCCN)c1ccccc1 [filanesib]
Method in brief: as §1

zotarolimus = compound: CO[C@H]1C[C@@H]2CC[C@@H](C)[C@@](O)(O2)C(=O)C(=O)N2CCCC[C@H]2C(=O)O[C@H]([C@H](C)C[C@@H]2CC[C@H](n3cnnn3)[C@H](OC)C2)CC(=O)[C@H](C)/C=C(\C)[C@@H](O)[C@@H](OC)C(=O)[C@H](C)C[C@H](C)/C=C/C=C/C=C/1C [zotarolimus]
Method in brief: as §1

idasanutlin = compound: COc1cc(C(=O)O)ccc1NC(=O)[C@@H]1N[C@@H](CC(C)(C)C)[C@](C#N)(c2ccc(Cl)cc2F)[C@H]1c1cccc(Cl)c1F [idasanutlin]
Method in brief: as §1

alisertib = compound: COc1cc(Nc2ncc3c(n2)-c2ccc(Cl)cc2C(c2c(F)cccc2OC)=NC3)ccc1C(=O)O [alisertib]
Method in brief: as §1

[2] = compound: COc1cc2nc(-c3cc(F)ccc3O)nc(N[C@@H]3CNC[C@H]3C(C)(C)O)c2cc1OC
Method in brief: as §1

gefitinib = compound: COc1cc2ncnc(Nc3ccc(F)c(Cl)c3)c2cc1OCCCN1CCOCC1 [gefitinib]
Method in brief: as §1

[3] = compound: COc1cccc2cc(-c3nc([C@H]4CC[C@H](C(=O)O)CC4)n4ncnc(N)c34)[nH]c12
Method in brief: as §1

lapatinib = compound: CS(=O)(=O)CCNCc1ccc(-c2ccc3ncnc(Nc4ccc(OCc5cccc(F)c5)c(Cl)c4)c3c2)o1 [lapatinib]
Method in brief: as §1

pictilisib = compound: CS(=O)(=O)N1CCN(Cc2cc3nc(-c4cccc5[nH]ncc45)nc(N4CCOCC4)c3s2)CC1 [pictilisib]
Method in brief: as §1

[4] = compound: CS(=O)(=O)c1ccc(-c2cnc(N)c(C(=O)Nc3ccccc3)n2)cc1
Method in brief: as §1

crizotinib = compound: C[C@@H](Oc1cc(-c2cnn(C3CCNCC3)c2)cnc1N)c1c(Cl)ccc(F)c1Cl [crizotinib]
Method in brief: as §1

[5] = compound: C[C@@H]1COCCN1C2=NC(=NC(=C2)C3(CC3)S(=O)(=O)C)C4=C5C=CNC5=CC=C4
Method in brief: as §1

[6] = compound: C[C@H](C1=CC=C(C=C1)C(=O)NC2=C3C=CNC3=NC=C2)N
Method in brief: as §1

duvelisib = compound: C[C@H](Nc1ncnc2nc[nH]c12)c1cc2cccc(Cl)c2c(=O)n1-c1ccccc1 [duvelisib]
Method in brief: as §1

gandotinib = compound: Cc1cc(Nc2cc(CN3CCOCC3)c3nc(C)c(Cc4ccc(Cl)cc4F)n3n2)n[nH]1 [gandotinib]
Method in brief: as §1

tozasertib = compound: Cc1cc(Nc2cc(N3CCN(C)CC3)nc(Sc3ccc(NC(=O)C4CC4)cc3)n2)n[nH]1 [tozasertib]
Method in brief: as §1

[7] = compound: Cc1cc(SCc2sc(-c3ccc(C(F)(F)F)cc3)nc2C)ccc1OCC(=O)O
Method in brief: as §1

doramapimod = compound: Cc1ccc(-n2nc(C(C)(C)C)cc2NC(=O)Nc2ccc(OCCN3CCOCC3)c3ccccc23)cc1 [doramapimod]
Method in brief: as §1

ispinesib = compound: Cc1ccc(C(=O)N(CCCN)[C@@H](c2nc3cc(Cl)ccc3c(=O)n2Cc2ccccc2)C(C)C)cc1 [ispinesib]
Method in brief: as §1

Measured: log2 fold change

CDC23 (UniProt Q9UJX2)
inactive: [1] -0.021 | filanesib 0.072 | zotarolimus 0.074 | idasanutlin 0.029 | alisertib -0.069 | [2] 0.013 | gefitinib 0.011 | [3] -0.02 | lapatinib 0.018 | pictilisib 0 | [4] 0.018 | crizotinib -0.019 | [5] -0.001 | [6] 0.08 | duvelisib 0.036 | gandotinib 0.006 | tozasertib 0.034 | [7] 0.022 | doramapimod 0.047 | ispinesib -0.059

CCNB2 (UniProt O95067)
inactive: [1] 0.038 | filanesib -0.007 | zotarolimus 0.033 | idasanutlin -0.019 | alisertib 0.001 | [2] -0.074 | gefitinib 0.004 | [3] -0.019 | lapatinib 0.008 | pictilisib 0.115 | [4] 0.01 | crizotinib -0.176 | [5] 0.005 | [6] -0.031 | duvelisib 0.049 | gandotinib 0.039 | tozasertib -0.079 | [7] 0.078 | doramapimod -0.018 | ispinesib -0.014

CBX3 (UniProt Q13185)
inactive: [1] 0.236 | filanesib 0 | zotarolimus 0.053 | idasanutlin 0 | alisertib -0.128 | [2] 0.036 | gefitinib 0.024 | [3] -0.05 | lapatinib -0.011 | pictilisib 0.061 | [4] 0.036 | crizotinib 0.006 | [5] 0.02 | [6] -0.015 | duvelisib 0.026 | gandotinib -0.07 | tozasertib 0.013 | [7] 0.003 | doramapimod -0.06 | ispinesib 0.029

CCDC88A (UniProt Q3V6T2)
inactive: [1] 0.057 | filanesib 0.167 | zotarolimus -0.107 | idasanutlin 0.057 | alisertib -0.028 | [2] -0.038 | gefitinib -0.044 | [3] 0.068 | lapatinib 0.055 | pictilisib 0.067 | [4] 0.063 | crizotinib -0.106 | [5] 0.002 | [6] 0.063 | duvelisib 0.051 | gandotinib 0.021 | tozasertib 0.031 | [7] -0.001 | doramapimod 0.04 | ispinesib -0.282

CCDC50 (UniProt Q8IVM0)
inactive: [1] -0.118 | filanesib 0.034 | zotarolimus -0.049 | idasanutlin -0.001 | alisertib -0.006 | [2] 0.096 | gefitinib 0.029 | [3] 0 | lapatinib -0.034 | pictilisib 0.027 | [4] -0.012 | crizotinib 0.02 | [5] 0.075 | [6] -0.002 | duvelisib 0.01 | gandotinib -0.068 | tozasertib -0.024 | [7] 0.006 | doramapimod -0.01 | ispinesib -0.099

CBFA2T3 (UniProt O75081)
inactive: [1] -0.058 | filanesib 0.08 | zotarolimus -0.003 | idasanutlin 0.058 | alisertib 0.043 | [2] 0.059 | gefitinib 0.112 | [3] 0.072 | lapatinib -0.105 | pictilisib -0.136 | [4] -0.117 | crizotinib 0.241 | [5] 0.147 | [6] 0.054 | duvelisib 0.035 | gandotinib -0.058 | tozasertib 0.037 | [7] 0.084 | doramapimod 0.22 | ispinesib -0.001

CCT6A (UniProt P40227)
inactive: [1] 0.004 | filanesib -0.025 | zotarolimus 0.02 | idasanutlin -0.005 | alisertib -0.031 | [2] -0.006 | gefitinib -0.013 | [3] 0.034 | lapatinib -0.002 | pictilisib -0.033 | [4] -0.02 | crizotinib 0 | [5] 0.017 | [6] -0.009 | duvelisib -0.006 | gandotinib -0.011 | tozasertib -0.005 | [7] -0.003 | doramapimod -0.005 | ispinesib -0.004

CCDC12 (UniProt Q8WUD4)
inactive: [1] -0.012 | filanesib -0.008 | zotarolimus -0.031 | idasanutlin 0.074 | alisertib -0.063 | [2] -0.023 | gefitinib -0.037 | [3] 0.075 | lapatinib 0.003 | pictilisib 0.035 | [4] 0.028 | crizotinib 0.095 | [5] -0.159 | [6] -0.072 | duvelisib -0.047 | gandotinib 0.11 | tozasertib -0.061 | [7] -0.065 | doramapimod -0.02 | ispinesib 0.006

CCDC6 (UniProt Q16204)
inactive: [1] -0.017 | filanesib 0.012 | zotarolimus 0.011 | idasanutlin 0.002 | alisertib -0.048 | [2] 0.044 | gefitinib 0.007 | [3] 0.03 | lapatinib -0.026 | pictilisib 0.066 | [4] -0.003 | crizotinib 0.058 | [5] 0.056 | [6] -0.04 | duvelisib 0.045 | gandotinib -0.014 | tozasertib -0.003 | [7] -0.043 | doramapimod -0.007 | ispinesib -0.032

CBFB isoform 2 (UniProt Q13951)
inactive: [1] -0.036 | filanesib -0.056 | zotarolimus 0.084 | idasanutlin -0.044 | alisertib -0.075 | [2] 0.094 | gefitinib 0.019 | [3] 0.004 | lapatinib -0.043 | pictilisib -0.141 | [4] 0 | crizotinib 0.061 | [5] -0.069 | [6] -0.091 | duvelisib 0.047 | gandotinib 0.089 | tozasertib 0.092 | [7] 0.065 | doramapimod 0.002 | ispinesib 0.002

CASP6 (UniProt P55212)
inactive: [1] -0.003 | filanesib -0.005 | zotarolimus 0.045 | idasanutlin -0.053 | alisertib -0.098 | [2] -0.009 | gefitinib -0.021 | [3] 0.001 | lapatinib 0.008 | pictilisib 0.047 | [4] -0.029 | crizotinib 0.07 | [5] 0.009 | [6] -0.064 | duvelisib 0.02 | gandotinib -0.006 | tozasertib -0.006 | [7] 0.013 | doramapimod -0.032 | ispinesib 0.045

CCDC93 (UniProt Q567U6)
inactive: [1] 0.039 | filanesib 0.075 | zotarolimus 0.017 | idasanutlin -0.033 | alisertib -0.02 | [2] 0.156 | gefitinib 0.021 | [3] -0.113 | lapatinib -0.03 | pictilisib -0.005 | [4] 0.121 | crizotinib -0.164 | [5] 0.011 | [6] 0.134 | duvelisib 0.064 | gandotinib 0.042 | tozasertib 0 | [7] 0.072 | doramapimod 0.036 | ispinesib -0.135

Reprinted from the results shown (2 entries):
CCNB2 (UniProt O95067)
inactive: [1] 0.038 | filanesib -0.007 | zotarolimus 0.033 | idasanutlin -0.019 | alisertib 0.001 | [2] -0.074 | gefitinib 0.004 | [3] -0.019 | lapatinib 0.008 | pictilisib 0.115 | [4] 0.01 | crizotinib -0.176 | [5] 0.005 | [6] -0.031 | duvelisib 0.049 | gandotinib 0.039 | tozasertib -0.079 | [7] 0.078 | doramapimod -0.018 | ispinesib -0.014

CBX3 (UniProt Q13185)
inactive: [1] 0.236 | filanesib 0 | zotarolimus 0.053 | idasanutlin 0 | alisertib -0.128 | [2] 0.036 | gefitinib 0.024 | [3] -0.05 | lapatinib -0.011 | pictilisib 0.061 | [4] 0.036 | crizotinib 0.006 | [5] 0.02 | [6] -0.015 | duvelisib 0.026 | gandotinib -0.07 | tozasertib 0.013 | [7] 0.003 | doramapimod -0.06 | ispinesib 0.029

Additional results.

CCDC90B (UniProt Q9GZT6)
inactive: [1] 0.028 | filanesib 0.008 | zotarolimus 0.01 | idasanutlin -0.034 | alisertib -0.019 | [2] -0.016 | gefitinib 0.025 | [3] 0.033 | lapatinib -0.004 | pictilisib 0.039 | [4] 0.013 | crizotinib 0.163 | [5] 0.205 | [6] -0.097 | duvelisib 0.133 | gandotinib 0.038 | tozasertib 0.005 | [7] -0.021 | doramapimod 0.047 | ispinesib 0.068

CARNMT1 (UniProt Q8N4J0)
inactive: [1] -0.174 | filanesib -0.109 | zotarolimus 0.025 | idasanutlin -0.099 | alisertib 0.003 | [2] 0.092 | gefitinib 0.011 | [3] -0.002 | lapatinib 0.027 | pictilisib 0.051 | [4] 0.042 | crizotinib -0.014 | [5] 0.146 | [6] -0.022 | duvelisib -0.007 | gandotinib -0.023 | tozasertib -0.036 | [7] 0.028 | doramapimod 0.034 | ispinesib 0.038

CCT5 (UniProt P48643)
inactive: [1] 0.073 | filanesib -0.04 | zotarolimus 0.025 | idasanutlin -0.031 | alisertib -0.058 | [2] -0.026 | gefitinib -0.005 | [3] 0.003 | lapatinib 0.013 | pictilisib -0.079 | [4] -0.026 | crizotinib -0.007 | [5] 0.006 | [6] -0.023 | duvelisib -0.006 | gandotinib -0.068 | tozasertib 0.001 | [7] 0.004 | doramapimod 0.002 | ispinesib 0.01
